From article doi:10.1101/2025.07.01.662498
Construct, isoform or probe ends are uncertain for at least one entry. At least one verdict was read from the data and is not stated in words by the source.

Amino acid sequences for entries named in this document (tags omitted). A change or cut given only in a name is not applied to a line headed by its entry.
UniProt Q9UGN5: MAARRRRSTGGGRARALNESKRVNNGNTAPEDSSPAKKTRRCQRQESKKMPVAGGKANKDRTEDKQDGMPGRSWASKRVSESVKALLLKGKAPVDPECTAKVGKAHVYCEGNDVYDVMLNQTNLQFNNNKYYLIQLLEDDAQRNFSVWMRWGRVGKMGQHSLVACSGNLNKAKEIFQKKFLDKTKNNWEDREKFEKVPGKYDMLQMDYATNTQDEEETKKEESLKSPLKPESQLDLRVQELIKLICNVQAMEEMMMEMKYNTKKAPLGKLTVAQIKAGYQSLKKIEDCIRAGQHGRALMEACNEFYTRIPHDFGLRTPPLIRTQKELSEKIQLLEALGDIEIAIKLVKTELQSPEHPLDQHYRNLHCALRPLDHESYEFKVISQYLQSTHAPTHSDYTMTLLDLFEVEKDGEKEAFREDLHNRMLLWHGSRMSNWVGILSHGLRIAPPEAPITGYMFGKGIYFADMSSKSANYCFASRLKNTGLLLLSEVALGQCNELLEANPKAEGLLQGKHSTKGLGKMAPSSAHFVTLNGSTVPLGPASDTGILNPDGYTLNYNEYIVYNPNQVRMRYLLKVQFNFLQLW

Experiments:
[1] = biological target: PARP2 SA (no ser) (human) (UniProt Q9UGN5); experiment: fluorescence polarization; conditions: 5'-phosphate, residues 1-583
PARP2 WT (human) = PARP2 WT (human) (UniProt Q9UGN5); experiment: fluorescence polarization; conditions: 5 uM HPF1, Kd curve only in figure; 5'-phosphate; residues 1-583

Measured: binding result

GGAAGTCTTTTGACTTCCTCGAAGCTTTTGCTTCGA [fluorescein-labelled nicked dumbbell DNA, 5'-phosphate]
binds: [1]; 5 uM HPF1, Kd curve only in figure | [1]; no HPF1, Kd curve only in figure | PARP2 WT (human)
